Measured values reported in paper PMC10763615 (RSC Chemical Biology, 2023).
Where a sequence shows no end group, the ends are not given. Some peptides are written in HELM: one residue between dots, names in brackets for other building blocks, links after the first $.

assay: general procedure: Fmoc solid-phase peptide synthesis; Fmoc-PAL AM resin (Novabiochem) pre-loaded with GSGSDYKDDDDK-NH2; DIC / Oxyma / collidine; conditions: whole synthesis, analytical HPLC/UPLC

Substance	crude HPLC purity [%]	final HPLC purity [%]
PEPTIDE1{[ac].M.C.S.I.L.L.Y.K.V.L.S.R.C.G.S.G.S.D.Y.K.D.D.D.D.K.[am]}$PEPTIDE1,PEPTIDE1,3:R3-14:R3$$$V2.0	47.44	
PEPTIDE1{[ac].M.C.I.Y.R.L.S.D.F.W.V.V.C.G.S.G.S.D.Y.K.D.D.D.D.K.[am]}$PEPTIDE1,PEPTIDE1,3:R3-14:R3$$$V2.0	62.55	55.0
PEPTIDE1{[ac].M.C.I.K.D.L.H.L.F.Y.Y.L.L.C.G.S.G.S.D.Y.K.D.D.D.D.K.[am]}$PEPTIDE1,PEPTIDE1,3:R3-15:R3$$$V2.0	59.90	
PEPTIDE1{[ac].M.C.E.D.L.F.Y.Y.L.L.F.H.H.C.G.S.G.S.D.Y.K.D.D.D.D.K.[am]}$PEPTIDE1,PEPTIDE1,3:R3-15:R3$$$V2.0	19.38	
PEPTIDE1{[ac].M.C.E.Q.R.S.R.W.S.N.Y.W.Y.P.C.G.S.G.S.D.Y.K.D.D.D.D.K.[am]}$PEPTIDE1,PEPTIDE1,3:R3-16:R3$$$V2.0	69.02	
PEPTIDE1{[ac].M.C.T.G.R.H.L.Y.Y.W.K.L.F.H.C.G.S.G.S.E.E.G.S.G.S.D.Y.K.D.D.D.D.K.[am]}$PEPTIDE1,PEPTIDE1,3:R3-16:R3$$$V2.0	52.99	
PEPTIDE1{[ac].M.C.V.T.W.Y.K.V.T.K.L.R.C.G.S.G.S.D.Y.K.D.D.D.D.K.[am]}$PEPTIDE1,PEPTIDE1,3:R3-14:R3$$$V2.0		89.4
MCDCHPLLCFLLC	40.37	
MCHCFPIVCWFEC	32.77	
PEPTIDE1{[ac].M.C.Y.K.Y.S.K.D.L.W.L.Y.R.L.W.C.G.S.G.S.D.Y.K.D.D.D.D.K.[am]}$PEPTIDE1,PEPTIDE1,3:R3-17:R3$$$V2.0	38.33	
PEPTIDE1{[ac].M.C.Y.E.I.I.W.Y.K.L.Q.R.V.C.G.S.G.S.D.Y.K.D.D.D.D.K.[am]}$PEPTIDE1,PEPTIDE1,3:R3-15:R3$$$V2.0	42.02	
PEPTIDE1{[ac].M.C.D.A.Y.Y.V.R.Y.W.Q.V.L.H.C.G.S.G.S.D.Y.K.D.D.D.D.K.[am]}$PEPTIDE1,PEPTIDE1,3:R3-16:R3$$$V2.0	47.51	
PEPTIDE1{[ac].M.C.R.E.L.L.Y.Y.L.L.Q.R.C.G.S.G.S.D.Y.K.D.D.D.D.K.[am]}$PEPTIDE1,PEPTIDE1,3:R3-14:R3$$$V2.0	57.23	
PEPTIDE1{[ac].M.C.P.V.I.I.Y.K.I.L.S.H.C.G.S.G.S.D.Y.K.D.D.D.D.K.[am]}$PEPTIDE1,PEPTIDE1,3:R3-14:R3$$$V2.0	57.48	
PEPTIDE1{[ac].M.C.P.I.H.F.F.K.I.V.Y.R.H.C.G.S.G.S.E.E.G.S.G.S.D.Y.K.D.D.D.D.K.[am]}$PEPTIDE1,PEPTIDE1,3:R3-15:R3$$$V2.0	47.51	
PEPTIDE1{[ac].M.C.Y.K.N.I.S.T.G.I.F.L.Y.C.G.S.G.S.D.Y.K.D.D.D.D.K.[am]}$PEPTIDE1,PEPTIDE1,3:R3-15:R3$$$V2.0	70.25	
PEPTIDE1{[ac].M.C.E.D.L.F.Y.Y.I.I.N.R.Y.G.C.G.S.G.S.D.Y.K.D.D.D.D.K.[am]}$PEPTIDE1,PEPTIDE1,3:R3-16:R3$$$V2.0	47.25	
PEPTIDE1{[ac].M.C.D.S.I.R.A.Q.Y.A.R.W.W.I.C.G.S.G.S.D.Y.K.D.D.D.D.K.[am]}$PEPTIDE1,PEPTIDE1,3:R3-16:R3$$$V2.0	55.20	
PEPTIDE1{[ac].M.C.R.D.F.W.H.L.W.F.R.V.C.G.S.G.S.D.Y.K.D.D.D.D.K.[am]}$PEPTIDE1,PEPTIDE1,3:R3-14:R3$$$V2.0	42.96	
PEPTIDE1{[ac].M.C.A.K.Y.F.L.I.W.R.A.Y.Q.Q.C.G.S.G.S.D.Y.K.D.D.D.D.K.[am]}$PEPTIDE1,PEPTIDE1,3:R3-16:R3$$$V2.0	36.14	
PEPTIDE1{[ac].M.C.K.Y.A.T.L.Q.W.Y.K.W.F.Y.C.G.S.G.S.D.Y.K.D.D.D.D.K.[am]}$PEPTIDE1,PEPTIDE1,3:R3-16:R3$$$V2.0	34.92	
PEPTIDE1{[ac].M.C.N.I.I.L.Y.K.I.M.K.N.R.C.G.S.G.S.D.Y.K.D.D.D.D.K.[am]}$PEPTIDE1,PEPTIDE1,3:R3-15:R3$$$V2.0	34.38	
MCHCFPTICWLEC	73.32	
PEPTIDE1{[ac].M.C.H.R.Y.I.Y.L.D.Y.W.H.C.G.S.G.S.D.Y.K.D.D.D.D.K.[am]}$PEPTIDE1,PEPTIDE1,3:R3-14:R3$$$V2.0	55.61	
PEPTIDE1{[ac].M.C.A.V.Y.Y.K.L.W.L.K.H.S.R.C.G.S.G.S.E.E.G.S.G.S.D.Y.K.D.D.D.D.K.[am]}$PEPTIDE1,PEPTIDE1,3:R3-16:R3$$$V2.0	22.18	
PEPTIDE1{[ac].M.C.I.F.D.L.F.L.P.F.I.F.C.G.S.G.S.D.Y.K.D.D.D.D.K.[am]}$PEPTIDE1,PEPTIDE1,3:R3-14:R3$$$V2.0	0	91.3

Substance	crude HPLC purity [%]	final HPLC purity [%]
PEPTIDE1{[ac].M.C.E.V.K.Y.F.L.I.W.K.R.W.C.G.S.G.S.D.Y.K.D.D.D.D.K.[am]}$PEPTIDE1,PEPTIDE1,3:R3-15:R3$$$V2.0	33.86	
PEPTIDE1{M.C.I.G.K.W.Y.T.Y.Q.Y.W.T.R.C.G.S.G.S.D.Y.K.D.D.D.D.K.[am]}$PEPTIDE1,PEPTIDE1,2:R3-15:R3$$$V2.0	100	81.6
MCHCFPTICWLVC	44.09	
PEPTIDE1{[ac].M.C.K.I.W.Y.V.D.H.K.F.W.W.V.C.G.S.G.S.D.Y.K.D.D.D.D.K.[am]}$PEPTIDE1,PEPTIDE1,3:R3-16:R3$$$V2.0	43.18	
MCHPTRLHLWLCCNC	0	62.1
PEPTIDE1{[ac].M.C.P.Y.A.I.Y.W.Y.K.W.R.K.T.C.G.S.G.S.E.E.G.S.G.S.D.Y.K.D.D.D.D.K.[am]}$PEPTIDE1,PEPTIDE1,3:R3-16:R3$$$V2.0	49.15	
PEPTIDE1{[ac].M.C.G.H.F.S.I.T.W.F.K.W.C.G.S.G.S.D.Y.K.D.D.D.D.K.[am]}$PEPTIDE1,PEPTIDE1,3:R3-14:R3$$$V2.0	63.78	
PEPTIDE1{[ac].M.C.K.R.H.I.R.Y.W.Q.L.Y.V.C.G.S.G.S.E.E.G.S.G.S.D.Y.K.D.D.D.D.K.[am]}$PEPTIDE1,PEPTIDE1,3:R3-15:R3$$$V2.0	49.40	
PEPTIDE1{[ac].M.C.S.I.L.L.Y.K.V.L.S.Q.C.G.S.G.S.D.Y.K.D.D.D.D.K.[am]}$PEPTIDE1,PEPTIDE1,3:R3-14:R3$$$V2.0	82.97	
PEPTIDE1{[ac].M.C.I.L.L.Y.K.V.L.R.G.R.C.G.S.G.S.D.Y.K.D.D.D.D.K.[am]}$PEPTIDE1,PEPTIDE1,3:R3-14:R3$$$V2.0	72.16	
MCDCLHVVCFLVC	50.76	
PEPTIDE1{[ac].M.C.Y.R.F.P.S.S.H.L.F.W.A.C.G.S.G.S.D.Y.K.D.D.D.D.K.[am]}$PEPTIDE1,PEPTIDE1,3:R3-15:R3$$$V2.0	50.17	
PEPTIDE1{[ac].M.C.Y.T.R.H.P.Y.E.A.L.W.H.Q.C.G.S.G.S.D.Y.K.D.D.D.D.K.[am]}$PEPTIDE1,PEPTIDE1,3:R3-16:R3$$$V2.0	64.78	
PEPTIDE1{[ac].M.C.R.E.I.R.Y.W.Q.L.Y.R.A.F.C.G.S.G.S.D.Y.K.D.D.D.D.K.[am]}$PEPTIDE1,PEPTIDE1,3:R3-16:R3$$$V2.0	19.95	
PEPTIDE1{[ac].M.C.K.R.E.I.K.Y.W.L.V.F.C.G.S.G.S.D.Y.K.D.D.D.D.K.[am]}$PEPTIDE1,PEPTIDE1,3:R3-14:R3$$$V2.0	21.16	
PEPTIDE1{[ac].M.C.K.E.Y.E.I.L.W.Y.K.L.Q.Y.C.G.S.G.S.D.Y.K.D.D.D.D.K.[am]}$PEPTIDE1,PEPTIDE1,3:R3-16:R3$$$V2.0	48.94	
PEPTIDE1{[ac].M.C.A.P.K.W.L.I.K.V.L.S.C.G.S.G.S.D.Y.K.D.D.D.D.K.[am]}$PEPTIDE1,PEPTIDE1,3:R3-14:R3$$$V2.0	60.67	
PEPTIDE1{[ac].M.C.N.I.L.L.Y.K.I.L.S.V.C.G.S.G.S.D.Y.K.D.D.D.D.K.[am]}$PEPTIDE1,PEPTIDE1,3:R3-14:R3$$$V2.0	52.57	
PEPTIDE1{[ac].M.C.W.Y.D.Q.H.S.F.Y.W.E.R.L.C.G.S.G.S.D.Y.K.D.D.D.D.K.[am]}$PEPTIDE1,PEPTIDE1,3:R3-16:R3$$$V2.0	58.39	
PEPTIDE1{[ac].M.C.H.L.A.Y.Y.L.A.F.R.S.C.G.S.G.S.D.Y.K.D.D.D.D.K.[am]}$PEPTIDE1,PEPTIDE1,3:R3-14:R3$$$V2.0	54.88	88.8
PEPTIDE1{[ac].M.C.E.H.R.H.P.Y.G.H.W.E.Q.C.G.S.G.S.D.Y.K.D.D.D.D.K.[am]}$PEPTIDE1,PEPTIDE1,3:R3-15:R3$$$V2.0	58.43	
PEPTIDE1{[ac].M.C.P.K.W.F.I.L.W.R.Q.L.C.G.S.G.S.D.Y.K.D.D.D.D.K.[am]}$PEPTIDE1,PEPTIDE1,3:R3-14:R3$$$V2.0	63.82	
PEPTIDE1{[ac].M.C.W.S.K.L.I.I.K.Y.Y.L.S.Q.C.G.S.G.S.D.Y.K.D.D.D.D.K.[am]}$PEPTIDE1,PEPTIDE1,3:R3-16:R3$$$V2.0	11.27	
PEPTIDE1{[ac].M.C.R.W.V.K.Y.Y.Q.L.V.H.R.K.C.G.S.G.S.D.Y.K.D.D.D.D.K.[am]}$PEPTIDE1,PEPTIDE1,3:R3-16:R3$$$V2.0	47.25	
PEPTIDE1{[ac].M.C.L.W.H.Y.Y.K.I.F.R.R.Q.K.C.G.S.G.S.D.Y.K.D.D.D.D.K.[am]}$PEPTIDE1,PEPTIDE1,3:R3-16:R3$$$V2.0	57.28	

same assay, conditions: whole synthesis, analytical HPLC/UPLC, one disulfide bridge, sequence written open

Substance	crude HPLC purity [%]
MCVFDSFLPFIIC	82.09
MCVYDIFVPFIIC	52.63
MCYHRHIFQNHWYKCGSGSEE	50.13
MCIRWPARQSLFWIC	100
MCIFDNWLPFIFC	41.9
MCIFDNWLPFIYC	79.77
MCIFELNLPFIPC	100
MCFVYPRRQPLYWIC	100
MCYKWPIRSHLYWLC	55.16
MCSYGSWYGYSYLAC	83.22
MCHFRPNKFTAWLPC	61.38
MCYFDPHFIFIPC	87.07
MCLYDSFLPFIFC	78.76
